From PMC5399287

The chains behind the UniProt entries cited, without tags or fusion partners. Where a name states a change or a piece, a line headed by the entry shows the natural chain unless it says otherwise. Residues count along the entry.
UniProt P28301: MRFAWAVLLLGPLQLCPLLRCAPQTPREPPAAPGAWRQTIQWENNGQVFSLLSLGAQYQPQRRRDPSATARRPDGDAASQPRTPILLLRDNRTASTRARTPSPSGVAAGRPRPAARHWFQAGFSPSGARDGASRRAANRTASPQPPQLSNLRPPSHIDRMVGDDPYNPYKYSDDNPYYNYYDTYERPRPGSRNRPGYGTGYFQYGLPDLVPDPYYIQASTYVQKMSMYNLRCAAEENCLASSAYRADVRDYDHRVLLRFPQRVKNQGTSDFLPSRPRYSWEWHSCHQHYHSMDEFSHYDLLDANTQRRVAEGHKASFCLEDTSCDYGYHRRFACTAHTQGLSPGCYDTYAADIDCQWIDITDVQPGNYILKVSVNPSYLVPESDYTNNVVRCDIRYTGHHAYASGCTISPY
UniProt P29279, residues 27-349: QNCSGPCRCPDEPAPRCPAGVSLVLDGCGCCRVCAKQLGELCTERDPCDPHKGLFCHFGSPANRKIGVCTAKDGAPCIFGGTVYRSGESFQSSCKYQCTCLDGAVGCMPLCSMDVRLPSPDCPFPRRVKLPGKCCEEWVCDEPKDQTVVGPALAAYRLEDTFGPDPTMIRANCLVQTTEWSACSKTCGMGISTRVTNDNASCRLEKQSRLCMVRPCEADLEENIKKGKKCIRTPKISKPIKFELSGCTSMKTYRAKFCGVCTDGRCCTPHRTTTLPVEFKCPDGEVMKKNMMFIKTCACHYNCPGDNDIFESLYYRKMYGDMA
UniProt P55268, residues 33-1798: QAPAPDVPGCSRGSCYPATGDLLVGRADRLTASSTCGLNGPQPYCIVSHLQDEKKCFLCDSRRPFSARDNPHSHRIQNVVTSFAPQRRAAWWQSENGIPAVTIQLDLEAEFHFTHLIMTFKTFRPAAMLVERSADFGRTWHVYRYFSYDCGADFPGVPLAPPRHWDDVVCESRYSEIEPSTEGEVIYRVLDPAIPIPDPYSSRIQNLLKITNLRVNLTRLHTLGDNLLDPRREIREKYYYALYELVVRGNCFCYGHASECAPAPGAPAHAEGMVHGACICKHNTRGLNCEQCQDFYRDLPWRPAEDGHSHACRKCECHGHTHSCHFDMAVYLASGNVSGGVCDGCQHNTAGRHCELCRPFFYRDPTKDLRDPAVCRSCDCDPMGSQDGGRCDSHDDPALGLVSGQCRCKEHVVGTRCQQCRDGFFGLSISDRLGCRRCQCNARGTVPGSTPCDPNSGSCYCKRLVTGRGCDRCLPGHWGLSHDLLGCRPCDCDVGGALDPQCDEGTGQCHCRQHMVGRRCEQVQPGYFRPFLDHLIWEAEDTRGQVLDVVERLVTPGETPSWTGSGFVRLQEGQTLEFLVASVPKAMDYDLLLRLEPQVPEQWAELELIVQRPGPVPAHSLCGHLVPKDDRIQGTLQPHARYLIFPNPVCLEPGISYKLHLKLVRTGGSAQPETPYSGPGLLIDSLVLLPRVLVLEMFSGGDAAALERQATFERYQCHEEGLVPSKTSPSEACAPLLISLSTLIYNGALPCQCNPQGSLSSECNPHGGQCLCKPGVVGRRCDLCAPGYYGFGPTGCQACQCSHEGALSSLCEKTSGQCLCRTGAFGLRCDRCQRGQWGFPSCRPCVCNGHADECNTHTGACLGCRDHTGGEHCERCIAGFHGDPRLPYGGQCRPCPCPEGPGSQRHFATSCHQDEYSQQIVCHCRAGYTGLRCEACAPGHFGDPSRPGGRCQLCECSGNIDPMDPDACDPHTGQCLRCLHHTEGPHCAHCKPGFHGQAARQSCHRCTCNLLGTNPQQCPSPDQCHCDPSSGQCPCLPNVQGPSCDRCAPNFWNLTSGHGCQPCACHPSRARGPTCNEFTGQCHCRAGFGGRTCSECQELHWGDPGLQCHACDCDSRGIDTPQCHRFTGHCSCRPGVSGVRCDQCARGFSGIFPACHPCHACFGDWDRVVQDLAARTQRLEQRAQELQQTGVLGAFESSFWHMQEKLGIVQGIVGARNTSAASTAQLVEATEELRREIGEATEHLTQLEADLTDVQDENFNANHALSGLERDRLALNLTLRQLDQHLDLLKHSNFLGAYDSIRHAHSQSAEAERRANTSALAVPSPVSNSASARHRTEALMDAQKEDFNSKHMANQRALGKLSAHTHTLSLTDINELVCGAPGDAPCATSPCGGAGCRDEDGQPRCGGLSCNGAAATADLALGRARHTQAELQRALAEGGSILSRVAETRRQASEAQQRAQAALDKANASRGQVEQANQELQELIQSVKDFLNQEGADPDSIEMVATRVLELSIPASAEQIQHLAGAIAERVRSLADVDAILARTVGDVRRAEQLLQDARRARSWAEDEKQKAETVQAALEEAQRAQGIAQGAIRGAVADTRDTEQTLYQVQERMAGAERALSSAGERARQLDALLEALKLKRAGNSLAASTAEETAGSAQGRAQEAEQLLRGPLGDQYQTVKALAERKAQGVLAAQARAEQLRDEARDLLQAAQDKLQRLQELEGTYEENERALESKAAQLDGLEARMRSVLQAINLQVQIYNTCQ
UniProt P11047, residues 34-1609: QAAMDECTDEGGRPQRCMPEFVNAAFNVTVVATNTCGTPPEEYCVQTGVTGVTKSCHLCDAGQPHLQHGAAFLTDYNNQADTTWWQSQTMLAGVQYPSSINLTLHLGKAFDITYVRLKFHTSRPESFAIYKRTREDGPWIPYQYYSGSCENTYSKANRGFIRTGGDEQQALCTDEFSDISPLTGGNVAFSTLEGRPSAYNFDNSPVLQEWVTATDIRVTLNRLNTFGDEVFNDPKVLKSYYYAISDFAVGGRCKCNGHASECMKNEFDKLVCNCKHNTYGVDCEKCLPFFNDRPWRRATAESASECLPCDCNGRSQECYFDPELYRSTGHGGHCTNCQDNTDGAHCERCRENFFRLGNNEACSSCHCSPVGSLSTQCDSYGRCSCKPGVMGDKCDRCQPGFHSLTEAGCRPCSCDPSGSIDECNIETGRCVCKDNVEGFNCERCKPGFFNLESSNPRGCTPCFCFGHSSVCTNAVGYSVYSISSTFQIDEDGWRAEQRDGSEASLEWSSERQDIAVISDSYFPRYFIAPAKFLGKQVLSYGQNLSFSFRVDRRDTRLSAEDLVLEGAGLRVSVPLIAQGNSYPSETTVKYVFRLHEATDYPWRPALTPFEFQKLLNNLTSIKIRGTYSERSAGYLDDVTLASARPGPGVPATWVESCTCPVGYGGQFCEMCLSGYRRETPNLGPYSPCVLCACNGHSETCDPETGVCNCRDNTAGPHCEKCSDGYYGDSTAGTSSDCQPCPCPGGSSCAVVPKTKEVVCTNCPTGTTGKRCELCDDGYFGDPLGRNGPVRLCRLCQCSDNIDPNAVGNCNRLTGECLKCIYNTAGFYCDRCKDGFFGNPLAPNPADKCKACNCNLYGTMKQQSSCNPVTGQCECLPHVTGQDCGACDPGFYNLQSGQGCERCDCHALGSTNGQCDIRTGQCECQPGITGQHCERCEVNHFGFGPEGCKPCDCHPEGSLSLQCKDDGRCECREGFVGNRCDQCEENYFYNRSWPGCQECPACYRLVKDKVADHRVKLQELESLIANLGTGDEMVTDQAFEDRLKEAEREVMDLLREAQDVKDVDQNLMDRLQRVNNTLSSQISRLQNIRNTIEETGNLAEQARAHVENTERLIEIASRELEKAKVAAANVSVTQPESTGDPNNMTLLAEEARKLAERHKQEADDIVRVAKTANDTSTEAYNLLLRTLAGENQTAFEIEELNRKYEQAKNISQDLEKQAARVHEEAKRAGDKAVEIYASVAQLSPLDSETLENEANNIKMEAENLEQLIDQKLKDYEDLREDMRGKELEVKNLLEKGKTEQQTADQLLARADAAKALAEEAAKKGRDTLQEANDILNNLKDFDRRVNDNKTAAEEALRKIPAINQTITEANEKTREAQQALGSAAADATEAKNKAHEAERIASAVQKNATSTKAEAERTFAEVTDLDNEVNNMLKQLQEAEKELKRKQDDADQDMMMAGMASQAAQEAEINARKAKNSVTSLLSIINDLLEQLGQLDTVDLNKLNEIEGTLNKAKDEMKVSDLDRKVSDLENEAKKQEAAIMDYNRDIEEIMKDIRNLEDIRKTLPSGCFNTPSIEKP
UniProt P01137, residues 279-390: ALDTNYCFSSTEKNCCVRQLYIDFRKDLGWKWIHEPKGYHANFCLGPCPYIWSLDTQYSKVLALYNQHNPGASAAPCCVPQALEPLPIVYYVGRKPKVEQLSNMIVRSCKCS
UniProt P12109, residues 20-1028: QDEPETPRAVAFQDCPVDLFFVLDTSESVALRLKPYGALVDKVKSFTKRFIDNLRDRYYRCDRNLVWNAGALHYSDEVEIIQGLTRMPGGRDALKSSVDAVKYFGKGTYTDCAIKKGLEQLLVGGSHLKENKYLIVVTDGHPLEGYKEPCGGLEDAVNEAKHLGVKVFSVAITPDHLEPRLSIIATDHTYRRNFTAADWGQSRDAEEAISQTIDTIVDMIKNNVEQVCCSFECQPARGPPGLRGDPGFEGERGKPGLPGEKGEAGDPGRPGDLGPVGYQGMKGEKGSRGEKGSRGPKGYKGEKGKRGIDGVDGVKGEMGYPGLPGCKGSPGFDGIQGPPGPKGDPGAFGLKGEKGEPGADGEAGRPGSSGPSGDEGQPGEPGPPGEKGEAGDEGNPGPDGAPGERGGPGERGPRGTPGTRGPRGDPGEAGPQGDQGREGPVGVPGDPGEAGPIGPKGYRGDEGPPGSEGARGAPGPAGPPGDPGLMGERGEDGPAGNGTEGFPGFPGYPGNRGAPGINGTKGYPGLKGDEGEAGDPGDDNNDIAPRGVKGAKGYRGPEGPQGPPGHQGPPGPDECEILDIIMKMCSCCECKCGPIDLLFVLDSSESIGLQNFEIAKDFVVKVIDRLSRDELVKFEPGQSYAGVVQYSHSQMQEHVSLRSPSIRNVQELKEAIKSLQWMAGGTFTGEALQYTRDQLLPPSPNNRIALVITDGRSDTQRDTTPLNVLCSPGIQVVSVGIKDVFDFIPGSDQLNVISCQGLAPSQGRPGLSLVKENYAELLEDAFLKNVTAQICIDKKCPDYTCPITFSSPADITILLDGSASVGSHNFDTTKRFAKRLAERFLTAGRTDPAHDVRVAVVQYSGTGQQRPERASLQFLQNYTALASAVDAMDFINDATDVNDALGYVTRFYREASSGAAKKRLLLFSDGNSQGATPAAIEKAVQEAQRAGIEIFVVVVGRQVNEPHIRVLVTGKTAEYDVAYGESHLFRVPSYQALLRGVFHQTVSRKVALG
UniProt Q92743, residues 23-480: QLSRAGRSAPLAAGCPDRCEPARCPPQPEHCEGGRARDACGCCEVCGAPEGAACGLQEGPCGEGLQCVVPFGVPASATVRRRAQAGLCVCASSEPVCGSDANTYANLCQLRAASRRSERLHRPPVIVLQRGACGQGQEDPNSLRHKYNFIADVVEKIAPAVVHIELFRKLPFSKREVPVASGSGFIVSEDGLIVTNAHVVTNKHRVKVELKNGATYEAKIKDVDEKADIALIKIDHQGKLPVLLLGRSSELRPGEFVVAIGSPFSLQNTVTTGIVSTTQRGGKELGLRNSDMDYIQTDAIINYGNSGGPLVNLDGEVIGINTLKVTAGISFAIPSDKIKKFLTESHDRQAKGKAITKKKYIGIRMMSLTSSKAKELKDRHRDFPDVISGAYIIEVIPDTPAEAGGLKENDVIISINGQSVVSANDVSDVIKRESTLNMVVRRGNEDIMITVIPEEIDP

B1: Matrilin2 (MATN2) (protein, UniProt O00339 24-956)
chain: RERSRGRSISRGRHARTHPQTALLESSCENKRADLVFIIDSSRSVNTHDYAKVKEFIVDILQFLDIGPDVTRVGLLQYGSTVKNEFSLKTFKRKSEVERAVKRMRHLSTGTMTGLAIQYALNIAFSEAEGARPLRENVPRVIMIVTDGRPQDSVAEVAAKARDTGILIFAIGVGQVDFNTLKSIGSEPHEDHVFLVANFSQIETLTSVFQKKLCTAHMCSTLEHNCAHFCINIPGSYVCRCKQGYILNSDQTTCRIQDLCAMEDHNCEQLCVNVPGSFVCQCYSGYALAEDGKRCVAVDYCASENHGCEHECVNADGSYLCQCHEGFALNPDKKTCTKIDYCASSNHGCQHECVNTDDSYSCHCLKGFTLNPDKKTCRRINYCALNKPGCEHECVNMEESYYCRCHRGYTLDPNGKTCSRVDHCAQQDHGCEQLCLNTEDSFVCQCSEGFLINEDLKTCSRVDYCLLSDHGCEYSCVNMDRSFACQCPEGHVLRSDGKTCAKLDSCALGDHGCEHSCVSSEDSFVCQCFEGYILREDGKTCRRKDVCQAIDHGCEHICVNSDDSYTCECLEGFRLAEDGKRCRRKDVCKSTHHGCEHICVNNGNSYICKCSEGFVLAEDGRRCKKCTEGPIDLVFVIDGSKSLGEENFEVVKQFVTGIIDSLTISPKAARVGLLQYSTQVHTEFTLRNFNSAKDMKKAVAHMKYMGKGSMTGLALKHMFERSFTQGEGARPLSTRVPRAAIVFTDGRAQDDVSEWASKAKANGITMYAVGVGKAIEEELQEIASEPTNKHLFYAEDFSTMDEISEKLKKGICEALEDSDGRQDSPAGELPKTVQQPTESEPVTINIQDLLSCSNFAVQHRYLFEEDNLLRSTQKLSHSTKPSGSPLEEKHDQCKCENLIMFQNLANEEVRKLTQRLEEMTQRMEALENRLRYR
B2: CCBE1 (protein, UniProt Q6UXH8 35-406)
chain: YREEPEDGDREICSESKIATTKYPCLKSSGELTTCYRKKCCKGYKFVLGQCIPEDYDVCAEAPCEQQCTDNFGRVLCTCYPGYRYDRERHRKREKPYCLDIDECASSNGTLCAHICINTLGSYRCECREGYIREDDGKTCTRGDKYPNDTGHEKSENMVKAGTCCATCKEFYQMKQTVLQLKQKIALLPNNAADLGKYITGDKVLASNTYLPGPPGLPGGQGPPGSPGPKGSPGFPGMPGPPGQPGPRGSMGPMGPSPDLSHIKQGRRGPVGPPGAPGRDGSKGERGAPGPRGSPGPPGSFDFLLLMLADIRNDITELQEKVFGHRTHSSAEEFPLPQEFPSYPEAMDLGSGDDHPRRTETRDLRAPRDFYP
B3: GPC1 (protein, UniProt P35052 24-530)
chain: DPASKSRSCGEVRQIYGAKGFSLSDVPQAEISGEHLRICPQGYTCCTSEMEENLANRSHAELETALRDSSRVLQAMLATQLRSFDDHFQHLLNDSERTLQATFPGAFGELYTQNARAFRDLYSELRLYYRGANLHLEETLAEFWARLLERLFKQLHPQLLLPDDYLDCLGKQAEALRPFGEAPRELRLRATRAFVAARSFVQGLGVASDVVRKVAQVPLGPECSRAVMKLVYCAHCLGVPGARPCPDYCRNVLKGCLANQADLDAEWRNLLDSMVLITDKFWGTSGVESVIGSVHTWLAEAINALQDNRDTLTAKVIQGCGNPKVNPQGPGPEEKRRRGKLAPRERPPSGTLEKLVSEAKAQLRDVQDFWISLPGTLCSEKMALSTASDDRCWNGMARGRYLPEVMGDGLANQINNPEVEVDITKPDMTIRQQIMQLKIMTNRLRSAYNGNDVDFQDASDDGSGSGSGDGCLDDLCSRKVSRKSSSSRTPLTHALPGLSEQEGQKTS

What follows are molecules tested against LOX-GFP (wild-type lysyl oxidase fused to GFP) (mouse) (UniProt P28301) (assay: affinity purification with mass spectrometry; GFP fusion proteins precipitated with GFP-Trap agarose beads overnight at 4 °C from 45 ml culture medium of stably expressing MDA-MB-231 cells; co-precipitated proteins from gel slices by LC-MS/MS).
CTGF (from UniProt P29279 27-349) was tested, and the binding was “binds”. LAMB2 (from UniProt P55268 33-1798) was tested, and the binding was “binds”. With LAMC1 (from UniProt P11047 34-1609) the binding was “binds”. For “transforming growth factor β1 (TGFβ1) (from UniProt P01137 279-390) (ligand)”, the binding was “no binding”. COL6A1 (from UniProt P12109 20-1028) was tested, and the binding was “binds”. In the case of “HTRA1 (high-temperature requirement A serine peptidase 1) (from UniProt Q92743 23-480) (enzyme)”, the binding is reported as “binds”. For B1, the binding was “binds”. With B2 the binding was “binds”. For B3, the binding was “binds”.

These are yes or no findings as the source states them, for the method shown. In cells and extracts the contact can be indirect. Here binding means that the protein was enriched with, or labelled near, the bait; the list need not be complete. No binding means not detected with the bait.
